This is one part of the list.
Key:
Test in all cases: log2 fold change, soluble protein after heating vs DMSO (PISA); higher = thermal stabilisation; K562 lysate, 10 uM; active = over 0.2 and 3.5 SD of the protein, either way, in both replicates (recomputed)
erlotinib = compound: C#Cc1cccc(Nc2ncnc3cc(OCCOC)c(OCCOC)cc23)c1 [erlotinib]
Outline: (§1)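 Log-two fold change in thermal stability relative to solvent controls is reported from duplicates. For each sample, crude K562 extract from dounce-homogenised pellets in PBS pH 7.4 with 1 mM MgCl2, at 1 mg/mL protein, was treated with 10 μM compound for 30 min. Aliquots heated for 3 min across 48°C-58°C were pooled, brought to 0.5% NP-40 at 4°C and cleared at 21,000xg for 90 min. The supernatant was quantified by TMTpro 16plex LC-MS/MS with channel sums equalised.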

By UniProt entry, the sequences of proteins in these tests, tags left out. Where a name states a change or a piece, a line headed by the entry shows the natural chain unless it says otherwise.
UniProt Q9UKD1: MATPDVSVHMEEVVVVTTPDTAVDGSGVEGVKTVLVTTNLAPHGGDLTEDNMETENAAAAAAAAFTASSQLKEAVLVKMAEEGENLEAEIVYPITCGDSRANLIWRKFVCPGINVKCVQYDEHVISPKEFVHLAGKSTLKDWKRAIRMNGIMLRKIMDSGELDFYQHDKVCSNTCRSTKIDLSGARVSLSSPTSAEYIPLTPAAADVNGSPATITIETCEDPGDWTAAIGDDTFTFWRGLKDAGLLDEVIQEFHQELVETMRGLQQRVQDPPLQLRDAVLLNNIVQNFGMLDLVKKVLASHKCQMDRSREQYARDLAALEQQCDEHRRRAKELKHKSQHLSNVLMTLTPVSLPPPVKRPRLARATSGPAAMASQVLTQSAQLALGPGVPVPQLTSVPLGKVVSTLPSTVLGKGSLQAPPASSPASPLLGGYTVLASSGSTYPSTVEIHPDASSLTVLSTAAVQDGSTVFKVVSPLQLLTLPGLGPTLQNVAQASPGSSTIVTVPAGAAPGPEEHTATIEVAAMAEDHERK
UniProt Q9P2T1: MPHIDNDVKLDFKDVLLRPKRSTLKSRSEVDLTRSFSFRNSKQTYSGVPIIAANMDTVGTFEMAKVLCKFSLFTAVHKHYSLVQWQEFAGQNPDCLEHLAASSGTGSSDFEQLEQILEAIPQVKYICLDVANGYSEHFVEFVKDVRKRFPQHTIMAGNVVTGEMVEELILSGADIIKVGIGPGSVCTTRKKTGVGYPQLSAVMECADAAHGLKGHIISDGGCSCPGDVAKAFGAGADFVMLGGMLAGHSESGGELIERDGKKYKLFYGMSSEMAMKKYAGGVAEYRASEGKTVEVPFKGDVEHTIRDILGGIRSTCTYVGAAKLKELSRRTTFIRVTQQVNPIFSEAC
UniProt Q53EU6: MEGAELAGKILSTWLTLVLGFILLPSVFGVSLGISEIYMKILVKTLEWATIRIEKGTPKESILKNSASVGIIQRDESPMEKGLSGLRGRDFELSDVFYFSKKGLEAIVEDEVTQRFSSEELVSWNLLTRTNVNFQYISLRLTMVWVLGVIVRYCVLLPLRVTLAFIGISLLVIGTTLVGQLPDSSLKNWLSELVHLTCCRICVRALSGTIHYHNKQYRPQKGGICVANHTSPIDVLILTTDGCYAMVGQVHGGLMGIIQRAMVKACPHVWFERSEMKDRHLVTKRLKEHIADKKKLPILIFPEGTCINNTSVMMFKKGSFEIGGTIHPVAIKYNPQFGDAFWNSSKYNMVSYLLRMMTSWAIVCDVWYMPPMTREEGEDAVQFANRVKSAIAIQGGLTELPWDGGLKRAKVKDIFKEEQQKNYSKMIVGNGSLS
UniProt O76003: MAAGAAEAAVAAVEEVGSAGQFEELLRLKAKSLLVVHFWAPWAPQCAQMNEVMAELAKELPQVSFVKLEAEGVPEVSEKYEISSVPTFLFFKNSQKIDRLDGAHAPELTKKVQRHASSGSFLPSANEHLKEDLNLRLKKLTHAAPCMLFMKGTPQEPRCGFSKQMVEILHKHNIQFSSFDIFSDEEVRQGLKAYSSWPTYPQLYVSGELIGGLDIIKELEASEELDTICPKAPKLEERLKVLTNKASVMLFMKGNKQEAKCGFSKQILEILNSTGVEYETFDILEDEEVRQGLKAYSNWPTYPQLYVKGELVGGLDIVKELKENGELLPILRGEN
UniProt O95249: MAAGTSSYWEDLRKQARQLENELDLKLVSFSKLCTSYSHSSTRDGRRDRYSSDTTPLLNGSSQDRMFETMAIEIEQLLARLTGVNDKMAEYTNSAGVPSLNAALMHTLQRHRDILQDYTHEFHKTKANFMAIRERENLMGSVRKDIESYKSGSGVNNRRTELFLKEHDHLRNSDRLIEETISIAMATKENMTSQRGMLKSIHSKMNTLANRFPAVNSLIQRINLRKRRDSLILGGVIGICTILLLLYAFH
UniProt Q8N954: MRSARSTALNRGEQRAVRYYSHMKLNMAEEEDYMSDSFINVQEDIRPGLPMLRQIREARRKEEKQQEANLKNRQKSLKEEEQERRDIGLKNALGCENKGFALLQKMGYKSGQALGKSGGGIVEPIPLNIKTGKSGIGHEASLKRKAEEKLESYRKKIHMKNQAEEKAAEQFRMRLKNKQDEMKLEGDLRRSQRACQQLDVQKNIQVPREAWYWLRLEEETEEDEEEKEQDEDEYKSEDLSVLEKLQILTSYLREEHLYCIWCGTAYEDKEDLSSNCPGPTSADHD
UniProt Q86SX6: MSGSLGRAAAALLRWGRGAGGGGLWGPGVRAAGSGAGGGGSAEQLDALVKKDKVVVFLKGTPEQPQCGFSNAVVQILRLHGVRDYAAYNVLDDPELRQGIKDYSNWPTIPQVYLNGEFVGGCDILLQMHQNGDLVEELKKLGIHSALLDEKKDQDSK
UniProt Q14344, whole entry, looked up: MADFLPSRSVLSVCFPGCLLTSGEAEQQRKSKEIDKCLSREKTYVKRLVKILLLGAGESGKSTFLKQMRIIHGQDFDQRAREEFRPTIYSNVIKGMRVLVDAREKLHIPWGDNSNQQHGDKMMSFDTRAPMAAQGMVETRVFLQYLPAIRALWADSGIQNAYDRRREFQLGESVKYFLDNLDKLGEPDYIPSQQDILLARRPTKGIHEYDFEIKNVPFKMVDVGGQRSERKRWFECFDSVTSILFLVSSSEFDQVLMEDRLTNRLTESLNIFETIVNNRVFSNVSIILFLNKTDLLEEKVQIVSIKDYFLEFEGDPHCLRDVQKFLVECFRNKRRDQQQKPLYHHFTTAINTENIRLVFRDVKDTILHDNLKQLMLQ
UniProt O75496: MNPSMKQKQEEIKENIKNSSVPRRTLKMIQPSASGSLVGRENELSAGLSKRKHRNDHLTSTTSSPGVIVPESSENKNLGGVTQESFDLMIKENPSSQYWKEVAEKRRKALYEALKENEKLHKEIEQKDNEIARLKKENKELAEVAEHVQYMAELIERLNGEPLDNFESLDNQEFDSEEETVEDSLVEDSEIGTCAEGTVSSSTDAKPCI
UniProt Q9BVP2: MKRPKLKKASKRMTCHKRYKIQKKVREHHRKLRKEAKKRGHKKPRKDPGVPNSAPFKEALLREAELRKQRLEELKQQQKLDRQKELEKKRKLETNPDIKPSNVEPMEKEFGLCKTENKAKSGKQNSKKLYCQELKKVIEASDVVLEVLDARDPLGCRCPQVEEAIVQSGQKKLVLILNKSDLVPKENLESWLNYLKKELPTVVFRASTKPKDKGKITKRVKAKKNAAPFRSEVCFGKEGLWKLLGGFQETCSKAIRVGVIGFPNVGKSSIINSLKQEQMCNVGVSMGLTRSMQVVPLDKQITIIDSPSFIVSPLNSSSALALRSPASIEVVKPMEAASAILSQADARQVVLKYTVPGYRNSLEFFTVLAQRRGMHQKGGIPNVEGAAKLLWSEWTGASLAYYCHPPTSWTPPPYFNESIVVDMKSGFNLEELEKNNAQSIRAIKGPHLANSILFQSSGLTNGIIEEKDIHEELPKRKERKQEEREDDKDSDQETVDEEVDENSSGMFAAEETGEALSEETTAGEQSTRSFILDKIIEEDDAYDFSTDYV
UniProt Q13439: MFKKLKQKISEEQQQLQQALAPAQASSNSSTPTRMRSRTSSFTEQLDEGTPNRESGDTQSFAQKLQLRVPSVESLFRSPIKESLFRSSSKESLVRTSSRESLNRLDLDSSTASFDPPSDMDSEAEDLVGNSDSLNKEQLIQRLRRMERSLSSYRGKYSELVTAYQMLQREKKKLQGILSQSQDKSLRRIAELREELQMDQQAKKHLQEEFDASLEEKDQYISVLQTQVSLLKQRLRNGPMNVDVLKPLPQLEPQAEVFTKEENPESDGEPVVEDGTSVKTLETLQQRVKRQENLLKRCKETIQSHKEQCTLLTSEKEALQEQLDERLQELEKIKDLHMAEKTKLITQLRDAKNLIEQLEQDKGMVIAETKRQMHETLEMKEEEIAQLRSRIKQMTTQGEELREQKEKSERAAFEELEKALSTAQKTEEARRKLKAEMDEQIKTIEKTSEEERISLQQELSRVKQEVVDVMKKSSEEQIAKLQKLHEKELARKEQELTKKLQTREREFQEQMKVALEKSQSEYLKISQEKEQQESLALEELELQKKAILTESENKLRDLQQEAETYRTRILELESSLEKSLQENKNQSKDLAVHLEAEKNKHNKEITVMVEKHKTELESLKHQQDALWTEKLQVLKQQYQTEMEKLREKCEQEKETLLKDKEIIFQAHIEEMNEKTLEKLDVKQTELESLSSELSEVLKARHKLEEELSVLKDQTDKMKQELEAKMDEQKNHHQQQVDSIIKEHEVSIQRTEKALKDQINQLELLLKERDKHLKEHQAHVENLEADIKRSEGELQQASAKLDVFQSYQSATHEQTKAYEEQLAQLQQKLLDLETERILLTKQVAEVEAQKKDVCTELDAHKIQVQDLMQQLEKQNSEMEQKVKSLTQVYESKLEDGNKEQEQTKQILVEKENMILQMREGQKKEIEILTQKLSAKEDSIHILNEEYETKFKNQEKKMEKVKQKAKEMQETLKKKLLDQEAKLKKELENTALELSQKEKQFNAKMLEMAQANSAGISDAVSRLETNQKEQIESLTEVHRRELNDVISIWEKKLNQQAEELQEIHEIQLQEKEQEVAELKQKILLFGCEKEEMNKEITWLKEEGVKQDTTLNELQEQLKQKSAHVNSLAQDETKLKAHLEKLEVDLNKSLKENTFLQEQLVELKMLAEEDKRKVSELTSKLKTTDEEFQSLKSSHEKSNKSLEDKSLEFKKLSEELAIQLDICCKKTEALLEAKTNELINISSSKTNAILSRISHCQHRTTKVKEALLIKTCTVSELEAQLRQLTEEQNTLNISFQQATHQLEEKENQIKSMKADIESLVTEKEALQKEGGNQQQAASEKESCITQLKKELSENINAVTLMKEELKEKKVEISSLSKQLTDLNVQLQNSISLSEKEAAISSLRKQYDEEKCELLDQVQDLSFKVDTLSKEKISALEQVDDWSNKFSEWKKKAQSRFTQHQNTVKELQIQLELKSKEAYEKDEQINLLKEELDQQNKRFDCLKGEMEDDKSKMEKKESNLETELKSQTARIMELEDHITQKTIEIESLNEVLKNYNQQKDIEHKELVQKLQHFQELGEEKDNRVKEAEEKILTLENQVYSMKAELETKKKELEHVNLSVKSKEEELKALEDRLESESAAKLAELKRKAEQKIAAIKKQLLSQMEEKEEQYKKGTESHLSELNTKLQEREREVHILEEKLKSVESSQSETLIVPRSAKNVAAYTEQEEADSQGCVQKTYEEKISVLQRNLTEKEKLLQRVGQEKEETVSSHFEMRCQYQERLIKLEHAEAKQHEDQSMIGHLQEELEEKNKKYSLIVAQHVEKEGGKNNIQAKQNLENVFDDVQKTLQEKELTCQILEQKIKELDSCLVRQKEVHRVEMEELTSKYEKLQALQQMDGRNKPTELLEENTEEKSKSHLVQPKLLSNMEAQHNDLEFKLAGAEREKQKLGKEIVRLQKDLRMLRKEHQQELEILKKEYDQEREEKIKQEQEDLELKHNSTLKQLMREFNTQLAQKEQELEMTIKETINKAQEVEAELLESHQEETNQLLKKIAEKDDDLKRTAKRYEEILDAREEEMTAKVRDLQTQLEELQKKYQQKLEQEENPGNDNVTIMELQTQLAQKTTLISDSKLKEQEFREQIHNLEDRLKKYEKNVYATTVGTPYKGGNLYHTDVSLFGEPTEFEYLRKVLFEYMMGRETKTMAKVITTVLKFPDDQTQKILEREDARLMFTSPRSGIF
UniProt P62879, whole entry, looked up: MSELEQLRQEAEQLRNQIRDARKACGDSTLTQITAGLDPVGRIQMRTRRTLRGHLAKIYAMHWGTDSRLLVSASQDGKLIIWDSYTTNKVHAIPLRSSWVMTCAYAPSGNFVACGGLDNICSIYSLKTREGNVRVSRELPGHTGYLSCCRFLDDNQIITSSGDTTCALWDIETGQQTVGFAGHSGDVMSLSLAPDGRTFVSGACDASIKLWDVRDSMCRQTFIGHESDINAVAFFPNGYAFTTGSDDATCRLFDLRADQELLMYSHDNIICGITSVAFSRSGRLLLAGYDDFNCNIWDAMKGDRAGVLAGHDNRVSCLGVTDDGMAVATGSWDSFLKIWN
UniProt P29992, whole entry, looked up: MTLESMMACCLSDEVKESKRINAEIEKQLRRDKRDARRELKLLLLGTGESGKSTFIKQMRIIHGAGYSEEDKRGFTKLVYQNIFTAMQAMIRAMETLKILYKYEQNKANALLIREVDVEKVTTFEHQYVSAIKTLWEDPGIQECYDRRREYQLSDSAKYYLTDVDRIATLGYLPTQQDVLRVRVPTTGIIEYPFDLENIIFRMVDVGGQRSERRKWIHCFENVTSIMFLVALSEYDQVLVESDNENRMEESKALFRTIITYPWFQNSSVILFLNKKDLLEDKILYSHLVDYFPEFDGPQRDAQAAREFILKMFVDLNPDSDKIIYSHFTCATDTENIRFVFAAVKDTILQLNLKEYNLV

[1] = compound: C/C(=N\NC(=O)C1=CC(=CC=C1)S(=O)(=O)N2CCOCC2)/C3=C(C=CC(=C3)Cl)O
Outline: as §1

[2] = compound: C1=CC(=CC=C1C2=NC3=C(N2)C=C(C=C3)C(=O)N)OC4=CC=C(C=C4)Cl
Outline: as §1

[3] = compound: C1=CC2=C(C=CC(=C2)/C=C\3/C(=O)NC(=NCC4=CC=CS4)S3)N=C1
Outline: as §1

[4] = compound: C1=CC2=NC=CN=C2C=C1/C=C/3\C(=O)NC(=O)S3
Outline: as §1

[5] = compound: C1=CC=C(C=C1)C2=NC(=C(N2)C3=CC=NC=C3)C4=CC(=C(C=C4)Cl)O
Outline: as §1

[6] = compound: C1=CC=C2C(=C1)C3=NNC4=CC=CC(=C43)C2=O
Outline: as §1

[7] = compound: C1CCN(C1)C(=O)NC2=CC=CC(=C2)NC3=NC=C(C(=N3)NCCC4=CN=CN4)Br
Outline: as §1

[8] = compound: C1CN(CCC1(CC2=CC=C(C=C2)Cl)N)C3=NC=NC4=C3C=CN4
Outline: as §1

IRAK-1-4 Inhibitor I = compound: C1COCCN1CCN2C3=CC=CC=C3N=C2NC(=O)C4=CC(=CC=C4)[N+](=O)[O-] [IRAK-1-4 Inhibitor I]
Outline: as §1

ibrutinib = compound: C=CC(=O)N1CCC[C@@H](n2nc(-c3ccc(Oc4ccccc4)cc3)c3c(N)ncnc32)C1 [ibrutinib]
Outline: as §1

[9] = compound: CC(=O)c1cnc2ccc(-c3cc(Cl)c(O)c(Cl)c3)nc2c1N[C@H]1CC[C@H](CN(C)C)CC1
Outline: as §1

ralimetinib = compound: CC(C)(C)Cn1c(N)nc2ccc(-c3[nH]c(C(C)(C)C)nc3-c3ccc(F)cc3)nc21 [ralimetinib]
Outline: as §1

[10] = compound: CC(C)(O)CC(=O)NCCn1ccc2ncnc(Nc3ccc(Oc4cccc(C(F)(F)F)c4)c(Cl)c3)c21
Outline: as §1

[11] = compound: CC(C)C1=C2N=C(C=C(N2N=C1)NCC3=CC=CC=C3)NCCCCCCN
Outline: as §1

[12] = compound: CC1=C(C(CC(=O)N1)C2=CC=C(C=C2)C(F)(F)F)C(=O)NC3=C(C=C4C(=C3)C=NN4)F
Outline: as §1

[13] = compound: CC1=C(C2=C(C=C1)C(=O)C3=CC=CC=C3N2CCCN)C
Outline: as §1

[14] = compound: CC1=C(C=C(C=C1)NC(=O)C2=CC(=CC=C2)C(C)(C)C#N)NC3=CC4=C(C=C3)N=CN(C4=O)C
Outline: as §1

[15] = compound: CC1=C(C=C(C=C1)NC(=O)C2=CC(=CC=C2)N(C)C)NC(=O)C3=CC=C(C=C3)O
Outline: as §1

[16] = compound: CC1=CC=C(C=C1)SC2=C3C=C(SC3=CN=C2)C(=O)N
Outline: as §1

Measured: log2 fold change

GMEB2 (UniProt Q9UKD1)
inactive: erlotinib -0.018 | [1] -0.006 | [2] -0.127 | [3] -0.005 | [4] -0.041 | [5] -0.024 | [6] 0.06 | [7] -0.002 | [8] -0.031 | IRAK-1-4 Inhibitor I -0.013 | ibrutinib 0.032 | [9] -0.03 | ralimetinib 0.007 | [10] -0.017 | [11] 0.007 | [12] 0.032 | [13] 0.127 | [14] 0.024 | [15] 0.071 | [16] 0.027

GNE isoform 2 (UniProt Q9Y223)
inactive: erlotinib 0.035 | [1] -0.067 | [2] -0.042 | [3] -0.032 | [4] 0.011 | [5] 0.064 | [6] -0.031 | [7] -0.024 | [8] 0.023 | IRAK-1-4 Inhibitor I -0.042 | ibrutinib -0.036 | [9] 0.009 | ralimetinib 0.033 | [10] -0.036 | [11] -0.007 | [12] -0.011 | [13] -0.036 | [14] -0.001 | [15] 0.069 | [16] 0.009

GMPR2 isoform 2 (UniProt Q9P2T1)
inactive: erlotinib 0.005 | [1] 0.001 | [2] 0.016 | [3] 0.002 | [4] 0.001 | [5] -0.013 | [6] -0.012 | [7] -0.016 | [8] 0.008 | IRAK-1-4 Inhibitor I -0.022 | ibrutinib 0.014 | [9] -0.005 | ralimetinib -0.01 | [10] -0.018 | [11] -0.043 | [12] -0.016 | [13] 0.004 | [14] 0.018 | [15] -0.002 | [16] -0.021

GPAT3 (UniProt Q53EU6)
inactive: erlotinib 0.033 | [1] -0.123 | [2] -0.111 | [3] -0.05 | [4] 0.055 | [5] -0.005 | [6] -0.002 | [7] 0.038 | [8] 0.071 | IRAK-1-4 Inhibitor I -0.017 | ibrutinib 0.013 | [9] 0.03 | ralimetinib 0.039 | [10] -0.059 | [11] 0.035 | [12] 0.061 | [13] 0.021 | [14] -0.019 | [15] 0.006 | [16] 0.006

GLCCI1 (UniProt Q86VQ1)
inactive: erlotinib -0.081 | [1] 0.069 | [2] -0.011 | [3] 0.024 | [4] -0.04 | [5] -0.019 | [6] -0.06 | [7] -0.127 | [8] -0.017 | IRAK-1-4 Inhibitor I 0 | ibrutinib 0.061 | [9] 0 | ralimetinib 0.029 | [10] 0.008 | [11] 0.044 | [12] -0.005 | [13] -0.012 | [14] 0.083 | [15] -0.037 | [16] -0.057

GPS1 isoform 6 (UniProt Q13098)
inactive: erlotinib 0.005 | [1] -0.016 | [2] 0.014 | [3] 0.002 | [4] 0.027 | [5] 0.002 | [6] -0.004 | [7] -0.014 | [8] -0.012 | IRAK-1-4 Inhibitor I 0.004 | ibrutinib -0.015 | [9] -0.011 | ralimetinib 0.007 | [10] -0.008 | [11] -0.014 | [12] 0.001 | [13] 0.01 | [14] 0.012 | [15] 0.006 | [16] -0.014

GLRX3 (UniProt O76003)
inactive: erlotinib 0.01 | [1] 0.019 | [2] 0.011 | [3] -0.02 | [4] 0.018 | [5] 0 | [6] 0.008 | [7] 0.021 | [8] 0.048 | IRAK-1-4 Inhibitor I -0.004 | ibrutinib 0.009 | [9] -0.005 | ralimetinib 0.004 | [10] -0.012 | [11] 0.041 | [12] 0.008 | [13] 0.004 | [14] -0.009 | [15] -0.032 | [16] 0.002

GOSR1 (UniProt O95249)
inactive: erlotinib -0.028 | [1] 0.015 | [2] -0.166 | [3] -0.076 | [4] -0.009 | [5] -0.004 | [6] -0.091 | [7] 0.086 | [8] -0.032 | IRAK-1-4 Inhibitor I -0.008 | ibrutinib 0.009 | [9] 0.005 | ralimetinib 0.016 | [10] -0.013 | [11] -0.024 | [12] 0.052 | [13] 0.016 | [14] 0.036 | [15] -0.008 | [16] -0.023

GPATCH11 (UniProt Q8N954)
inactive: erlotinib -0.048 | [1] 0.021 | [2] 0.025 | [3] 0.003 | [4] -0.025 | [5] 0.019 | [6] -0.005 | [7] 0.007 | [8] 0.121 | IRAK-1-4 Inhibitor I -0.014 | ibrutinib 0.031 | [9] -0.012 | ralimetinib 0.006 | [10] -0.01 | [11] 0.002 | [12] -0.003 | [13] -0.017 | [14] 0.03 | [15] 0.005 | [16] -0.03

Reprinted from above (3 entries):
GPAT3 (UniProt Q53EU6)
inactive: erlotinib 0.033 | [1] -0.123 | [2] -0.111 | [3] -0.05 | [4] 0.055 | [5] -0.005 | [6] -0.002 | [7] 0.038 | [8] 0.071 | IRAK-1-4 Inhibitor I -0.017 | ibrutinib 0.013 | [9] 0.03 | ralimetinib 0.039 | [10] -0.059 | [11] 0.035 | [12] 0.061 | [13] 0.021 | [14] -0.019 | [15] 0.006 | [16] 0.006

GLCCI1 (UniProt Q86VQ1)
inactive: erlotinib -0.081 | [1] 0.069 | [2] -0.011 | [3] 0.024 | [4] -0.04 | [5] -0.019 | [6] -0.06 | [7] -0.127 | [8] -0.017 | IRAK-1-4 Inhibitor I 0 | ibrutinib 0.061 | [9] 0 | ralimetinib 0.029 | [10] 0.008 | [11] 0.044 | [12] -0.005 | [13] -0.012 | [14] 0.083 | [15] -0.037 | [16] -0.057

GPS1 isoform 6 (UniProt Q13098)
inactive: erlotinib 0.005 | [1] -0.016 | [2] 0.014 | [3] 0.002 | [4] 0.027 | [5] 0.002 | [6] -0.004 | [7] -0.014 | [8] -0.012 | IRAK-1-4 Inhibitor I 0.004 | ibrutinib -0.015 | [9] -0.011 | ralimetinib 0.007 | [10] -0.008 | [11] -0.014 | [12] 0.001 | [13] 0.01 | [14] 0.012 | [15] 0.006 | [16] -0.014

(continued)

GLRX5 (UniProt Q86SX6)
inactive: erlotinib 0.033 | [1] 0.067 | [2] 0.016 | [3] -0.042 | [4] -0.039 | [5] 0.031 | [6] -0.058 | [7] 0.057 | [8] 0.102 | IRAK-1-4 Inhibitor I 0.018 | ibrutinib 0.019 | [9] -0.006 | ralimetinib -0.003 | [10] 0.008 | [11] 0.008 | [12] -0.103 | [13] 0 | [14] 0.064 | [15] -0.068 | [16] -0.016

GNA13 (UniProt Q14344)
inactive: erlotinib -0.011 | [1] 0.068 | [2] -0.009 | [3] -0.015 | [4] 0.022 | [5] -0.017 | [6] -0.009 | [7] -0.01 | [8] 0.068 | IRAK-1-4 Inhibitor I 0.005 | ibrutinib -0.006 | [9] -0.024 | ralimetinib 0.014 | [10] -0.016 | [11] -0.04 | [12] 0.02 | [13] -0.015 | [14] 0.01 | [15] -0.03 | [16] -0.019

GMNN (UniProt O75496)
inactive: erlotinib -0.006 | [1] 0.053 | [2] -0.025 | [3] -0.015 | [4] -0.003 | [5] 0.009 | [6] 0.051 | [7] 0.01 | [8] -0.026 | IRAK-1-4 Inhibitor I -0.031 | ibrutinib 0.043 | [9] 0.001 | ralimetinib 0.013 | [10] -0.006 | [11] -0.023 | [12] -0.007 | [13] 0.028 | [14] 0.018 | [15] -0.02 | [16] -0.003

GNL3 (UniProt Q9BVP2)
inactive: erlotinib 0.004 | [1] -0.072 | [2] 0.002 | [3] 0.009 | [4] -0.062 | [5] 0.015 | [6] -0.011 | [7] 0.021 | [8] 0.014 | IRAK-1-4 Inhibitor I 0.033 | ibrutinib 0.023 | [9] -0.063 | ralimetinib -0.026 | [10] -0.021 | [11] 0.05 | [12] -0.005 | [13] -0.073 | [14] 0.009 | [15] -0.007 | [16] -0.057

GOLGA4 isoform 5 (UniProt Q13439)
inactive: erlotinib 0.011 | [1] -0.026 | [2] 0.021 | [3] -0.002 | [4] -0.031 | [5] 0.014 | [6] -0.052 | [7] -0.042 | [8] 0.022 | IRAK-1-4 Inhibitor I 0 | ibrutinib 0.021 | [9] 0.003 | ralimetinib 0.018 | [10] -0.014 | [11] 0.002 | [12] 0.01 | [13] -0.006 | [14] 0.016 | [15] 0.035 | [16] -0.001

GNB2 (UniProt P62879)
inactive: erlotinib 0.013 | [1] 0.063 | [2] -0.068 | [3] 0.021 | [4] 0.035 | [5] 0.022 | [6] -0.008 | [7] 0.03 | [8] 0.035 | IRAK-1-4 Inhibitor I 0.006 | ibrutinib -0.006 | [9] 0.023 | ralimetinib 0 | [10] 0.024 | [11] -0.029 | [12] -0.042 | [13] 0.032 | [14] 0.009 | [15] -0.041 | [16] 0.039

GNA11 (UniProt P29992)
inactive: erlotinib -0.034 | [1] 0.044 | [2] -0.027 | [3] -0.101 | [4] 0.035 | [5] -0.025 | [6] -0.001 | [7] 0.007 | [8] 0.015 | IRAK-1-4 Inhibitor I 0.025 | ibrutinib -0.02 | [9] 0.032 | ralimetinib -0.015 | [10] -0.003 | [11] -0.033 | [12] -0.008 | [13] 0.017 | [14] 0 | [15] -0.036 | [16] 0.022

From the supplement of paper PMC10849652
